Source: publication PMC3629208
Results are given in words; binding and its absence hold for the method and conditions named. Binding seen in cells or lysates may run through a third protein. Some entries that bind do so weakly or less than the wild type.

By UniProt entry, the sequences of proteins in these tests, tags left out.
UniProt P31750: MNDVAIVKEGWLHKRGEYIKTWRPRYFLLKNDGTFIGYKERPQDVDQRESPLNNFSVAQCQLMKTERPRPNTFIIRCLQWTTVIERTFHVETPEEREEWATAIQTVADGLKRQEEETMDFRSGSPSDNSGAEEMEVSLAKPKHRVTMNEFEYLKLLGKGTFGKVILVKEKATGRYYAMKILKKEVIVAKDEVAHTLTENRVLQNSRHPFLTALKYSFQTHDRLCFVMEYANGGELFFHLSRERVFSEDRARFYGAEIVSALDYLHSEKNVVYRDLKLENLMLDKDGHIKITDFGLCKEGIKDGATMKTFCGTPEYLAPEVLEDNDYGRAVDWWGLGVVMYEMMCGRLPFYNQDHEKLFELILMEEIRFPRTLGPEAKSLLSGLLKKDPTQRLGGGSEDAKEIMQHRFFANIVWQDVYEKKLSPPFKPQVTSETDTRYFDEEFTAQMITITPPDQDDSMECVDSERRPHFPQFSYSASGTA

Key:
[1] = biological target: Akt (protein kinase B), Akt1 (mouse (endogenous in Neuro 2A)) (UniProt P31750); test: co-IP; anti-Akt antibody fixed on the beads by DSS, without DSP-crosslinking, Neuro 2A lysate (control or IGF-stimulated), western blot
[2] = biological target: Akt (protein kinase B), Akt1 (mouse (endogenous in Neuro 2A)) (UniProt P31750); test: as above; remark: listed apart in the source
[3] = biological target: Akt (protein kinase B), Akt1 (mouse (endogenous in Neuro 2A)) (UniProt P31750); test: co-IP; two-step crosslinking co-IP (DSS-fixed anti-Akt antibody, DSP-crosslinking of the bound complexes) from Neuro 2A lysate, western blot; cells with or without IGF-1 (10 ng/mL, 10 min); band intensity normalized to Akt level

binding [2]: binds weakly | binding [3]: binds
B1: ErbB3 binding protein 1 (EBP1, also called proliferation-associated protein 2G4) (protein, UniProt P50580 1-394)
chain: MSGEDEQQEQTIAEDLVVTKYKMGGDIANRVLRSLVEASSSGVSVLSLCEKGDAMIMEETGKIFKKEKEMKKGIAFPTSISVNNCVCHFSPLKSDQDYILKEGDLVKIDLGVHVDGFIANVAHTFVIGVAQGTQVTGRKADVIKAAHLCAEAALRLVKPGNQNTQVTEAWNKVAHSFNCTPIEGMLSHQLKQHVIDGEKTIIQNPTDQQKKDHEKAEFEVHEVYAVDVLVSSGEGKAKDAGQRTTIYKRDPSKQYGLKMKTSRAFFSEVERRFDAMPFTLRAFEDEKKARMGVVECAKHELLQPFNVLYEKEGEFVAQFKFTVLLMPNGPMRITSGPFEPDLYKSEMEVQDAELKALLQSSASRKTQKKKKKKASKTVENATSGETLEENGAGD
binding [1]: no binding (condition: without DSP-crosslinking)
